According to patent US6653286B1, “Gonadotropin releasing hormone antagonist” (Akzo Nobel NV, priority 1997, dated 2003):
Square brackets hold non-standard residues; d marks the D form. Peptide text beside a SMILES is read from it. d(hArg(Et2)) = CCN=C(NCC)NCCCC[C@@H](N)C(=O)O; hArg(Et2) = CCN=C(NCC)NCCCC[C@H](N)C(=O)O; dPhe(4-Cl) = N[C@H](Cc1ccc(Cl)cc1)C(=O)O; d2Nal = N[C@H](Cc1ccc2ccccc2c1)C(=O)O; d3Pal = N[C@H](Cc1cccnc1)C(=O)O

Tested on: premature LH surges
Experiment: phase II double-blind dose-finding study of ganirelix in women undergoing controlled ovarian hyperstimulation with recFSH
Format: in vivo, human
Method: In order to establish the minimum effective dose of ganirelix to prevent premature LH surges in women undergoing COH with recombinant FSH, a double-blind dose-finding study was performed with 6 test doses ranging between 2 mg and 0.0625 mg ganirelix.
This study was a phase II, multi-centre, double-blind, randomized, dose-finding study to assess the efficacy of the GnRH-antagonist ganirelix to prevent premature LH surges in women undergoing controlled ovarian hyperstimulation with recFSH. The dosages of ganirelix are administered by one daily SC administration.
RecFSH treatment started on day 2 of the menstrual cycle (treatment day -5) by a once daily SC injection. From treatment day -5 through day -1 the dose of recFSH was fixed at 150 IU daily. After 5 days of recFSH treatment (day 7 of the menstrual cycle), ganirelix treatment was started by daily SC administration. Treatment continued until and including the last day of recFSH administration. During ganirelix treatment, the dose of recFSH was adjusted depending on the individual ovarian response as assessed by daily ultra sonographic scan (USS). As soon as at least 3 folicles ≧17 mm measured by USS were observed, hCG was administered for ovulation induction. About 30-36 hours thereafter oocyte pick-up was performed followed by in vitro fertilization (IVF) with or without intracytoplasmic sperm injection (ICSI). No more than 3 embryos were replaced.
If during ganirelix treatment a premature LH rise occurred e.g. at least one value of serum LH ≧15 IU/L according to the local LH immunoassay the investigator canceled the cycle or tried to rescue the cycle by giving hCG prematurely. In addition, the investigator notified the sponsor about the occurrence of the LH rise and the central laboratory was requested to confirm the LH rise was ≧10 IU/L according to the central LH immunoassay. Subsequently, all data of such subject with a premature LH rise were forwarded to an Independent Advisory Committee which was installed in order to advice on stopping a treatment arm in case of LH rises during ganirelix treatment.
During the study, some investigators informed the sponsor on one or more cases of extremely low serum LH and failing estradiol concentrations as well as follicle growth arrest after starting ganirelix treatment. For this reason the External Independent Advisory Committee was requested to review all clinical data available in order to evaluate whether these observations were dose related and whether, in their opinion, there was reason to stop one or more treatment arms.
In addition, the Independent Advisory Committee reviewed all rises of LH (≧15 IU/L according to the local LH immunoassay and ≧10 IU/L according to the central LH immunoassay) during ganirelix treatment. Based on their evaluation the External Committee advised the sponsor to stop the highest (2 mg) and lowest (0.0625 mg) treatment dose of ganirelix. The study was completed for the other dosage groups.
In total 333 subjects started recFSH treatment and 332 subjects started ganirelix treatment. Because of major protocol violation 3 subjects were excluded from the analysis. The final number of patients per dosing group are included in Table 1.

SMILES: CCN=C(NCC)NCCCC[C@H](NC(=O)[C@H](CC(C)C)NC(=O)[C@@H](CCCCNC(=NCC)NCC)NC(=O)[C@H](Cc1ccc(O)cc1)NC(=O)[C@H](CO)NC(=O)[C@@H](Cc1cccnc1)NC(=O)[C@@H](Cc1ccc(Cl)cc1)NC(=O)[C@@H](Cc1ccc2ccccc2c1)NC(C)=O)C(=O)N1CCC[C@H]1C(=O)N[C@H](C)C(N)=O [ganirelix, N-Acetyl-3-(2-naphtyl)-D-alanyl-4-chloro-D-phenylalanyl-3-(3-pyridyl)-D-alanyl-L-seryl-L-tyrosyl-N^ω,N^ω-diethyl-D-homoarginyl-L-leucin-N^ω,N^ω-diethyl-Lhomoarginyl-L-propyl-D-alanylamide acetate] (Ac-[d2Nal][dPhe(4-Cl)][d3Pal]SY[d(hArg(Et2))]L[hArg(Et2)]P[dA]-NH2)
- Median serum FSH at the day of hCG (= last day of ganirelix) (0.0625 mg daily SC): 9.1 IU/L
- Median serum FSH at the day of hCG (= last day of ganirelix) (0.125 mg daily SC): 9.0 IU/L
- Median serum FSH at the day of hCG (= last day of ganirelix) (0.25 mg daily SC): 9.1 IU/L
- Median serum FSH at the day of hCG (= last day of ganirelix) (0.5 mg daily SC): 10.2 IU/L
- Median serum FSH at the day of hCG (= last day of ganirelix) (1 mg daily SC): 9.8 IU/L
- Median serum FSH at the day of hCG (= last day of ganirelix) (2 mg daily SC): 8.8 IU/L
